Test results reported in the supplement of paper PMC8728848.
The other results are listed elsewhere or left out.

Key:
Test in all cases: glycan array binding signal (z-score within array); higher = stronger binding
Settings in all cases: glycan notation: IUPAC condensed, linker removed
[1] = molecular target: Gal(b1-3)GlcNAc(b1-2)Man(a1-3)[Gal(b1-3)GlcNAc(b1-2)Man(a1-6)]Man(b1-4)GlcNAc(b1-4)[Fuc(a1-6)]GlcNAc
Procedure, shortened: (§1)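 The Consortium for Functional Glycomics database supplied 3228 glycan arrays, of which those lacking an available protein sequence were dropped. The binding signal, a within-array Z-score, was averaged across arrays of the same protein sequence and across linkers. Negative scores can be read as non-binding.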

[2] = molecular target: Gal(b1-3)GlcNAc(b1-2)Man(a1-3)[GlcNAc(b1-4)][Gal(b1-3)GlcNAc(b1-2)Man(a1-6)]Man(b1-4)GlcNAc(b1-4)GlcNAc
Procedure, shortened: as §1

[3] = molecular target: Gal(b1-3)GlcNAc(b1-2)[Gal(b1-3)GlcNAc(b1-6)]Man(a1-6)[Gal(b1-3)GlcNAc(b1-2)Man(a1-3)]Man(b1-4)GlcNAc(b1-4)GlcNAc
Procedure, shortened: as §1

[4] = molecular target: Gal(b1-3)GlcNAc(b1-3)Gal(b1-3)GlcNAc
Procedure, shortened: as §1

[5] = molecular target: Gal(b1-3)GlcNAc(b1-3)Gal(b1-4)Glc
Procedure, shortened: as §1

[6] = molecular target: Gal(b1-3)GlcNAc(b1-3)Gal(b1-4)GlcNAc
Procedure, shortened: as §1

[7] = molecular target: Gal(b1-3)GlcNAc(b1-3)Gal(b1-4)GlcNAc(b1-2)Man(a1-3)[Gal(b1-3)GlcNAc(b1-3)Gal(b1-4)GlcNAc(b1-2)Man(a1-6)]Man(b1-4)GlcNAc(b1-4)GlcNAc
Procedure, shortened: as §1

[8] = molecular target: Gal(b1-3)GlcNAc(b1-3)Gal(b1-4)GlcNAc(b1-2)[Gal(b1-3)GlcNAc(b1-3)Gal(b1-4)GlcNAc(b1-6)]Man(a1-6)[Gal(b1-3)GlcNAc(b1-3)Gal(b1-4)GlcNAc(b1-2)Man(a1-3)]Man(b1-4)GlcNAc(b1-4)[Fuc(a1-6)]GlcNAc
Procedure, shortened: as §1

[9] = molecular target: Gal(b1-3)GlcNAc(b1-3)Gal(b1-4)GlcNAc(b1-3)Gal(b1-4)GlcNAc(b1-2)[Gal(b1-3)GlcNAc(b1-3)Gal(b1-4)GlcNAc(b1-3)Gal(b1-4)GlcNAc(b1-6)]Man(a1-6)[Gal(b1-3)GlcNAc(b1-3)Gal(b1-4)GlcNAc(b1-3)Gal(b1-4)GlcNAc(b1-2)Man(a1-3)]Man(b1-4)GlcNAc(b1-4)[Fuc(a1-6)]GlcNAc
Procedure, shortened: as §1

[10] = molecular target: Gal(b1-3)GlcNAc(b1-3)Gal(b1-4)GlcNAc(b1-6)[Gal(b1-3)GlcNAc(b1-3)]Gal(b1-4)Glc
Procedure, shortened: as §1

[11] = molecular target: Gal(b1-3)GlcNAc(b1-3)Gal(b1-4)[Fuc(a1-3)]GlcNAc
Procedure, shortened: as §1

[12] = molecular target: Gal(b1-3)GlcNAc(b1-3)Gal(b1-4)[Fuc(a1-3)]GlcNAc(b1-6)[Gal(b1-3)GlcNAc(b1-3)]Gal(b1-4)Glc
Procedure, shortened: as §1

[13] = molecular target: Gal(b1-3)GlcNAc(b1-3)GalNAc
Procedure, shortened: as §1

[14] = molecular target: Gal(b1-3)GlcNAc(b1-6)Gal(b1-4)GlcNAc
Procedure, shortened: as §1

[15] = molecular target: Gal(b1-3)GlcNAc(b1-6)GalNAc
Procedure, shortened: as §1

[16] = molecular target: Gal(b1-3)GlcNAc(b1-6)[Gal(b1-3)]GalNAc
Procedure, shortened: as §1

[17] = molecular target: Gal(b1-3)GlcNAc6S
Procedure, shortened: as §1

[18] = molecular target: Gal(b1-3)[Fuc(a1-4)]GlcNAc
Procedure, shortened: as §1

[19] = molecular target: Gal(b1-3)[Fuc(a1-4)]GlcNAc(b1-2)Man
Procedure, shortened: as §1

[20] = molecular target: Gal(b1-3)[Fuc(a1-4)]GlcNAc(b1-2)Man(a1-3)[Gal(b1-3)[Fuc(a1-4)]GlcNAc(b1-2)Man(a1-6)]Man(b1-4)GlcNAc(b1-4)[Fuc(a1-6)]GlcNAc
Procedure, shortened: as §1

[21] = molecular target: Gal(b1-3)[Fuc(a1-4)]GlcNAc(b1-3)Gal(b1-3)[Fuc(a1-4)]GlcNAc
Procedure, shortened: as §1

[22] = molecular target: Gal(b1-3)[Fuc(a1-4)]GlcNAc(b1-3)Gal(b1-4)[Fuc(a1-3)]GlcNAc
Procedure, shortened: as §1

[23] = molecular target: Gal(b1-3)[Fuc(a1-4)]GlcNAc(b1-6)GalNAc
Procedure, shortened: as §1

[24] = molecular target: Gal(b1-3)[GlcNAc(b1-6)]GalNAc
Procedure, shortened: as §1

[25] = molecular target: Gal(b1-3)[Neu5Ac(a2-6)]GalNAc
Procedure, shortened: as §1

[26] = molecular target: Gal(b1-3)[Neu5Ac(a2-6)]GlcNAc(b1-4)Gal(b1-4)Glc
Procedure, shortened: as §1

[27] = molecular target: Gal(b1-3)[Neu5Ac(b2-6)]GalNAc
Procedure, shortened: as §1

[28] = molecular target: Gal(b1-4)Gal
Procedure, shortened: as §1

[29] = molecular target: Gal(b1-4)GalNAc(a1-3)[Fuc(a1-2)]Gal(b1-4)GlcNAc
Procedure, shortened: as §1

[30] = molecular target: Gal(b1-4)GalNAc(b1-3)[Fuc(a1-2)]Gal(b1-4)GlcNAc
Procedure, shortened: as §1

[31] = molecular target: Gal(b1-4)Glc
Procedure, shortened: as §1

[32] = molecular target: Gal(b1-4)Glc6S
Procedure, shortened: as §1

[33] = molecular target: Gal(b1-4)GlcNAc
Procedure, shortened: as §1

[34] = molecular target: Gal(b1-4)GlcNAc(a1-6)Gal(b1-4)GlcNAc
Procedure, shortened: as §1

[35] = molecular target: Gal(b1-4)GlcNAc(b1-2)Man
Procedure, shortened: as §1

[36] = molecular target: Gal(b1-4)GlcNAc(b1-2)Man(a1-3)Man(b1-4)GlcNAc(b1-4)GlcNAc
Procedure, shortened: as §1

[37] = molecular target: Gal(b1-4)GlcNAc(b1-2)Man(a1-3)[Gal(b1-4)GlcNAc(b1-2)Man(a1-6)]Man(b1-4)GlcNAc(b1-4)GlcNAc
Procedure, shortened: as §1

[38] = molecular target: Gal(b1-4)GlcNAc(b1-2)Man(a1-3)[Gal(b1-4)GlcNAc(b1-2)Man(a1-6)]Man(b1-4)GlcNAc(b1-4)[Fuc(a1-6)]GlcNAc
Procedure, shortened: as §1

[39] = molecular target: Gal(b1-4)GlcNAc(b1-2)Man(a1-3)[Gal(b1-4)GlcNAc(b1-2)Man(a1-6)][Gal(b1-4)GlcNAc(b1-4)]Man(b1-4)GlcNAc(b1-4)[Fuc(a1-6)]GlcNAc
Procedure, shortened: as §1

[40] = molecular target: Gal(b1-4)GlcNAc(b1-2)Man(a1-3)[Gal(b1-4)GlcNAc(b1-2)Man(a1-6)][GlcNAc(b1-4)]Man(b1-4)GlcNAc(b1-4)[Fuc(a1-6)]GlcNAc
Procedure, shortened: as §1

[41] = molecular target: Gal(b1-4)GlcNAc(b1-2)Man(a1-3)[GlcNAc(b1-2)Man(a1-6)]Man(b1-4)GlcNAc(b1-4)GlcNAc
Procedure, shortened: as §1

[42] = molecular target: Gal(b1-4)GlcNAc(b1-2)Man(a1-3)[GlcNAc(b1-4)][Gal(b1-4)GlcNAc(b1-2)Man(a1-6)]Man(b1-4)GlcNAc(b1-4)GlcNAc
Procedure, shortened: as §1

[43] = molecular target: Gal(b1-4)GlcNAc(b1-2)Man(a1-3)[Man(a1-6)]Man(b1-4)GlcNAc(b1-4)GlcNAc
Procedure, shortened: as §1

[44] = molecular target: Gal(b1-4)GlcNAc(b1-2)Man(a1-6)Man(b1-4)GlcNAc(b1-4)GlcNAc
Procedure, shortened: as §1

[45] = molecular target: Gal(b1-4)GlcNAc(b1-2)Man(a1-6)[GlcNAc(b1-2)Man(a1-3)]Man(b1-4)GlcNAc(b1-4)GlcNAc
Procedure, shortened: as §1

B1: Langerin K299A/K313A (Homo sapiens), Q9UJ71 (protein)
chain: STLNAQIPELKSDLEKASALNTKIRALQGSLENMSKLLKRQNDILQVVSQGWKYFKGNFYYFSLIPKTWYSAEQFCVSRNSHLTSVTSESEQEFLYKTAGGLIYWIGLTKAGMEGDWSWVDDTPFNKVQSARFWIPGEPNNAGNNEHCGNIAAPSLQAWNDAPCDATFLFICKRPYVPSEP
glycan array binding signal (z-score) [1]: 0.26
glycan array binding signal (z-score) [2]: 1.8
glycan array binding signal (z-score) [3]: -0.363
glycan array binding signal (z-score) [4]: -1.02
glycan array binding signal (z-score) [5]: -1.06
glycan array binding signal (z-score) [6]: -0.981
glycan array binding signal (z-score) [7]: 0.001
glycan array binding signal (z-score) [8]: 2.32
glycan array binding signal (z-score) [9]: 1.66
glycan array binding signal (z-score) [10]: 0.104
glycan array binding signal (z-score) [11]: -0.406
glycan array binding signal (z-score) [12]: -1.06
glycan array binding signal (z-score) [13]: 0
glycan array binding signal (z-score) [14]: -0.297
glycan array binding signal (z-score) [15]: -0.535
glycan array binding signal (z-score) [16]: -0.7
glycan array binding signal (z-score) [17]: -0.632
glycan array binding signal (z-score) [18]: -0.481
glycan array binding signal (z-score) [19]: -0.581
glycan array binding signal (z-score) [20]: 1.85
glycan array binding signal (z-score) [21]: 0.096
glycan array binding signal (z-score) [22]: -0.099
glycan array binding signal (z-score) [23]: 0.758
glycan array binding signal (z-score) [24]: -0.163
glycan array binding signal (z-score) [25]: 0.445
glycan array binding signal (z-score) [26]: -0.022
glycan array binding signal (z-score) [27]: -0.281
glycan array binding signal (z-score) [28]: 0.458
glycan array binding signal (z-score) [29]: -0.793
glycan array binding signal (z-score) [30]: 0.446
glycan array binding signal (z-score) [31]: 0.163
glycan array binding signal (z-score) [32]: -0.674
glycan array binding signal (z-score) [33]: -0.411
glycan array binding signal (z-score) [34]: -0.727
glycan array binding signal (z-score) [35]: -0.733
glycan array binding signal (z-score) [36]: -0.806
glycan array binding signal (z-score) [37]: -0.291
glycan array binding signal (z-score) [38]: 0.706
glycan array binding signal (z-score) [39]: -1.07
glycan array binding signal (z-score) [40]: -0.072
glycan array binding signal (z-score) [41]: -0.25
glycan array binding signal (z-score) [42]: -1.28
glycan array binding signal (z-score) [43]: 0.157
glycan array binding signal (z-score) [44]: -1.18
glycan array binding signal (z-score) [45]: -0.751
